PubChem BioAssay AID1259405 – NCATS – 2018

- Test: 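Mouse-designed siRNAs used to find CHO productivity engineering targets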 (primary screen)
- Cell system: Chinese hamster CHO-K1 ovary cells with stable secreted eGFP expression
- Reagent: single siRNA against mouse genes, 0.8 pmol siRNA per well (2 µl of 400 nM stock)
- Time to read-out: 3 days
- Detection: 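Percent of the per-plate non-targeting control median for intracellular GFP per well by laser scanning cytometry and for cell viability by ATP luminescence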
- Scale: GFP, % of control: higher = more GFP per well, higher productivity; viability (ATP), % of control: higher = more viable cells (more ATP)
- Rule for the call: 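a knock-down is called active if GFP reaches 120% or more of non-targeting control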
The whole screen tested about 50,000 reagents; this is an unselected part. In the full data, about 4,000 (8%) got an active call. 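Mouse siRNA library applied to hamster cells; one well for each siRNA.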 The numbers tell different reagents against one gene apart.

Silencing of Usp42 (ubiquitin specific peptidase 42) #1 gave: GFP, % of control 83.5; viability (ATP), % of control 58.4; inactive.
With knock-down of Usp42 (ubiquitin specific peptidase 42) #2, the screen gave GFP, % of control 74.9; viability (ATP), % of control 91; inactive.
After knock-down of Usp42 (ubiquitin specific peptidase 42) #3, the screen gave GFP, % of control 93.3; viability (ATP), % of control 88.9; inactive.
Zfp94 (zinc finger protein 94) #1 scored GFP, % of control 68.4; viability (ATP), % of control 69.7; inactive.
Zfp94 (zinc finger protein 94) #2 gave GFP, % of control 84.7; viability (ATP), % of control 95.3; inactive.
Silencing of Prl8a9 (prolactin family8, subfamily a, member 9) #1 came out at: GFP, % of control 127; viability (ATP), % of control 73.4; active.
Prl8a9 (prolactin family8, subfamily a, member 9) #2 gave GFP, % of control 57.9; viability (ATP), % of control 65.1; inactive.
Knock-down of Prl8a9 (prolactin family8, subfamily a, member 9) #3 gave: GFP, % of control 35.6; viability (ATP), % of control 40.2; inactive.
For Tesc (tescalcin) #1, the values are GFP, % of control 54.4; viability (ATP), % of control 55.4; inactive.
Tesc (tescalcin) #2 scored GFP, % of control 44.1; viability (ATP), % of control 39.5; inactive.
Tesc (tescalcin) #3 scored GFP, % of control 69.5; viability (ATP), % of control 83.4; inactive.
For Vamp1 (vesicle-associated membrane protein 1) #1 the deposit lists GFP, % of control 61.1; viability (ATP), % of control 48.3; inactive.
After knock-down of Vamp1 (vesicle-associated membrane protein 1) #2 the results were GFP, % of control 94.5; viability (ATP), % of control 85.2; inactive.
Depletion of Vamp1 (vesicle-associated membrane protein 1) #3 came out at: GFP, % of control 83.1; viability (ATP), % of control 69.6; inactive.

Reagents listed above called active (1):
Prl8a9 (prolactin family8, subfamily a, member 9) #1 → GFP, % of control = 127; viability (ATP), % of control = 73.4; call = active

Continued:
Against Dvl2 (dishevelled segment polarity protein 2) #1, the values are GFP, % of control 90.7; viability (ATP), % of control 84.6; inactive.
Against Dvl2 (dishevelled segment polarity protein 2) #2 the deposit lists GFP, % of control 44.7; viability (ATP), % of control 57; inactive.
Knock-down of Dvl2 (dishevelled segment polarity protein 2) #3 came out at: GFP, % of control 106; viability (ATP), % of control 86.2; inactive.
Depletion of Hbegf (heparin-binding EGF-like growth factor) #1 gave: GFP, % of control 67.6; viability (ATP), % of control 59.7; inactive.
Hbegf (heparin-binding EGF-like growth factor) #2 scored GFP, % of control 113; viability (ATP), % of control 100; inactive.
Swi5 (SWI5 recombination repair homolog (yeast)) #1 scored GFP, % of control 43; viability (ATP), % of control 65; inactive.
Swi5 (SWI5 recombination repair homolog (yeast)) #2 showed GFP, % of control 55.3; viability (ATP), % of control 70.2; inactive.
For Swi5 (SWI5 recombination repair homolog (yeast)) #3, the entry reads GFP, % of control 71.8; viability (ATP), % of control 76.4; inactive.
For Atp9a (ATPase, class II, type 9A) #1, the entry reads GFP, % of control 84.2; viability (ATP), % of control 85.8; inactive.
After knock-down of Atp9a (ATPase, class II, type 9A) #2, the screen gave GFP, % of control 73.7; viability (ATP), % of control 81.9; inactive.
Atp9a (ATPase, class II, type 9A) #3 gave GFP, % of control 60.2; viability (ATP), % of control 66.4; inactive.
For Crat (carnitine acetyltransferase) #1, the values are GFP, % of control 168; viability (ATP), % of control 87.5; active.
For Crat (carnitine acetyltransferase) #2, the values are GFP, % of control 149; viability (ATP), % of control 102; active.
Against Crat (carnitine acetyltransferase) #3 the deposit lists GFP, % of control 120; viability (ATP), % of control 96.7; inactive.
